Results taken from PubChem BioAssay AID720504 (National Center for Advancing Translational Sciences (NCATS), 2013).
Out of some 360,000 compounds screened, about 10,000 (2.8%) were called active. Inconclusive means that the source gave no clear call. Such entries were picked first, then a sample of the others. Calls follow the shape of the dose curve; as a rule, active = well fitted inhibition curve with a large enough effect; inconclusive = small, poorly fitted or top-dose-only effect; inactive = flat fitted curve, though single readings scatter. Potencies of inconclusive entries are doubtful fits and often do not repeat.
% is scaled to controls: 0 for no effect and ±100 for the full control effect; potency is read from the fitted curve at half-maximal effect.
Also: nearly all actives have a fitted effect of over 65% in size.
For max response, negative = inhibition in this document: series mostly up to about 57 µM.

The chains behind the UniProt entries cited, without tags or fusion partners.
UniProt P53350, whole entry, looked up: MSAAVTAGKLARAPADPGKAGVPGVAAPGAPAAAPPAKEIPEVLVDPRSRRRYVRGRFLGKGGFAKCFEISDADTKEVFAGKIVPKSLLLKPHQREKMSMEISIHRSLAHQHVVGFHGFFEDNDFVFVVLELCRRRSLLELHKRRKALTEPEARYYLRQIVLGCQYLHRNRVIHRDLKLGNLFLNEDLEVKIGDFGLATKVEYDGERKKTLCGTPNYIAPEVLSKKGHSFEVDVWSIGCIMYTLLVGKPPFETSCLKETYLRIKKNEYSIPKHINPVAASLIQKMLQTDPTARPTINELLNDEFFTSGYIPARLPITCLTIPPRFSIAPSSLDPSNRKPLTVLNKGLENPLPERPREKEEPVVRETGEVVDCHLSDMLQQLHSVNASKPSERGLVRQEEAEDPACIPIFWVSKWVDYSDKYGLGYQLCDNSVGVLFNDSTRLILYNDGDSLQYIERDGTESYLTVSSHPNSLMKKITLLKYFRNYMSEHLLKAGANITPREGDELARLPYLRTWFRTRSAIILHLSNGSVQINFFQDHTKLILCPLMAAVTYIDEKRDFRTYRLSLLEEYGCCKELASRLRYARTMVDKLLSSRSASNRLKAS

What follows are compounds tested against Serine/threonine-protein kinase PLK1 (Homo sapiens) (UniProt P53350) (assay: qHTS for Inhibitors of PLK1-PDB (polo-like kinase 1 - polo-box domain): Primary Screen). Settings: Plk1 PBD binding of FITC phosphopeptide, fluorescence polarization.
With `COc1ccc(C(=O)c2c3ccc([N+](=O)[O-])cc3[n+]([O-])n2CCCN)cc1` the Potency was inconclusive: 26.7 µM [inhibitor, single point].
With `COC(=O)c1ccc(-n2ccnc2)cc1` the max response, negative = inhibition was inactive: -4.12%.
In the case of `COc1cccc(C(=O)c2c[nH]c(C(=O)NCc3cccs3)c2)c1`, the Potency is reported as inconclusive: 29.9 µM [inhibitor, single point].
For `O=C(NC1CCCCC1)C1c2ccccc2OCC(=O)N1Cc1cccnc1` (stereo not drawn), the max response, negative = inhibition was inactive: -1.68%.
`C#CCOc1ccc(Cl)cc1/C=C1/C(=O)ON=C1C` was tested, and the Potency was inconclusive: 9.47 µM [inhibitor, partial curve, poor fit].
For `COc1ccc(C(C)=O)cc1COC(=O)c1cc(C)oc1C`, the Potency was inconclusive: 26.7 µM [inhibitor, single point].
With `O=[N+]([O-])c1ccc(-c2nn(-c3ccccc3)cc2/C=N/n2c(-c3ccncc3)n[nH]c2=S)cc1` the Potency was inconclusive: 75.2 µM [inhibitor, single point].
For `COc1ccc(C(=O)Oc2cc3c4c(c2)C(C)=CC(C)(C)N4C(=O)C3=O)cc1OC`, the max response, negative = inhibition was inactive: -18%.
For `COc1cccc(Nc2nc3ccccc3nc2NS(=O)(=O)c2cccs2)c1`, the Potency was inconclusive: 29.9 µM [inhibitor, single point].
In the case of `CCOc1ccc(NC(=O)c2cc3ccccc3cc2O)cc1`, the Potency is reported as inconclusive: 26.7 µM [inhibitor, single point].
For `COc1ccc(-c2sc3ccc(OC)cc3c2-c2ccc(OC)nc2)cc1`, the max response, negative = inhibition was inconclusive: -34.1% [inhibitor].
With `COc1ccc(CNC(=O)c2cc(C)nc3ccccc23)cc1OC` the Potency was inconclusive: 21.2 µM [inhibitor, single point].
`O=C(COc1cccc(C(F)(F)F)c1)Nc1cccc(S(=O)(=O)NC2=NCCCCC2)c1` was tested, and the max response, negative = inhibition was inactive: -2.98%.
In the case of `COc1ccc2[nH]c(=O)c(CN(C(=O)c3ccccn3)C3CCCCC3)cc2c1`, the Potency is reported as inconclusive: 23.8 µM [inhibitor, single point].
For `Cc1ccc(O)c(N=Cc2cc(Cc3ccccc3)cc([N+](=O)[O-])c2O)c1`, the Potency was inconclusive: 23.8 µM [inhibitor, partial curve].
With `CC(Sc1nc(-c2ccccc2)cc(C(F)(F)F)n1)C(=O)O` (stereo not drawn) the Potency was active: 26.7 µM.
In the case of `Cc1ccc(OCC(O)CN2C(=O)NC(C)(C)C2=O)c(C)c1` (stereo not drawn), the Potency is reported as inconclusive: 8.44 µM [inhibitor, partial curve].
For `C[C@@H]1CN([C@H](C)CO)C(=O)CCCn2cc(nn2)CO[C@H]1CN(C)C(=O)OCc1ccccc1`, the Potency was inconclusive: 29.9 µM [inhibitor, partial curve].
In the case of `O=C1CC(c2ccccc2)=Nc2ccccc2N1`, the max response, negative = inhibition is reported as inactive: -0.0019%.
With `O=C(CSc1nc2ccc(Cl)cc2[nH]1)Nc1ccc2[nH]c(=O)[nH]c2c1` the max response, negative = inhibition was inconclusive: -33.2% [inhibitor].
In the case of `CCN(CC)S(=O)(=O)c1ccc(OC)c(NC(=O)c2ccc([N+](=O)[O-])cc2)c1`, the max response, negative = inhibition is reported as inconclusive: -34.2% [inhibitor].
For `CC1CCN(C2=NN3C(=N)/C(=C\c4ccc(OC(=O)c5ccco5)cc4)C(=O)N=C3S2)CC1`, the Potency was inconclusive: 15 µM [inhibitor, single point].
With `COc1cc(CC(=O)Nc2c(-c3ccccc3)[nH][nH]c2=O)cc(OC)c1` the Potency was inconclusive: 13.4 µM [inhibitor, partial curve].
With `CC1CCN(c2ccc3nnc(CCC(=O)Nc4cccc(F)c4)n3n2)CC1` the Potency was active: 26.7 µM.
With `Cc1csc(NC(=O)CSCC(=O)Nc2ccccc2)n1` the Potency was inconclusive: 29.9 µM [inhibitor, partial curve].
For `O=C(N/N=C/c1ccccc1Cl)c1ccncc1`, the max response, negative = inhibition was inactive: -12%.
In the case of `COc1cc(/C=N/NC(=O)c2[nH]nc3c2CCc2ccccc2-3)ccc1O`, the Potency is reported as inconclusive: 3.77 µM [inhibitor, full curve].
For `Cc1cnc(NC(=O)COc2ccccc2)s1`, the Potency was active: 29.9 µM.
For `CC1CCCC(C)N1CCCNC(=O)Cn1ncc2c([nH]c3ccccc32)c1=O` (stereo not drawn), the Potency was inconclusive: 29.9 µM [inhibitor, single point].
For `N#Cc1c(-n2cccc2C=O)sc2c1CCCC2`, the Potency was inconclusive: 21.2 µM [inhibitor, partial curve].
`CN(C)CCCNC(=S)N1CCC(C(=O)c2ccc(Cl)cc2)CC1` was tested, and the max response, negative = inhibition was inactive: 0.225%.
In the case of `Cc1cccc(NC2=C(NC(=O)c3ccccc3)C(=O)c3ccccc3C2=O)c1`, the Potency is reported as inconclusive: 29.9 µM [inhibitor, partial curve].
In the case of `CCOC(=O)CCCCC(=O)c1[nH]c(=O)[nH]c1Cn1cnc2ccccc21`, the max response, negative = inhibition is reported as inactive: -9.82%.
For `CC1=NN(c2ccccc2)C(=O)/C1=C/N(C)C`, the max response, negative = inhibition was inactive: -9.97%.
`COc1ccc(/C=C2\SC(=Nc3ccccc3Cl)NC2=O)c(OC)c1` was tested, and the Potency was inconclusive: 26.7 µM [inhibitor, single point].
With `CC(=O)Nc1cccc(/C(C)=N/NC(N)=S)c1` the Potency was inconclusive: 26.7 µM [inhibitor, partial curve].
`Nc1ccccc1-c1n[nH]c(=S)s1` was tested, and the Potency was inconclusive: 26.7 µM [inhibitor, single point].
With `COc1ccc(-c2nc(S(=O)(=O)c3ccccc3)c(NCCCN3CCOCC3)o2)cc1` the Potency was inconclusive: 26.7 µM [inhibitor, single point].
`O=S(=O)(O)c1cc(Cl)cc(N=Nc2ccc(O)cc2O)c1O` was tested, and the Potency was inconclusive: 13.4 µM [inhibitor, partial curve].
In the case of `COC(C(=O)Nc1ccnn1C1CCN(C(=O)c2cccc(F)c2)CC1)c1ccccc1` (stereo not drawn), the max response, negative = inhibition is reported as inconclusive: -18.7% [inhibitor].
In the case of `O=S(=O)(c1ccc(=S)[nH]c1)N1CCN(Cc2ccccc2)CC1`, the Potency is reported as inconclusive: 26.7 µM [inhibitor, partial curve].
`Cc1ccc(OCC(=O)Oc2ccccc2[N+](=O)[O-])cc1` was tested, and the Potency was inconclusive: 2.67 µM [inhibitor, full curve].
With `CCc1ccc(/C=C2\C(=N)N3N=C(CC(=O)N4CCCCC4)SC3=NC2=O)cc1` the Potency was inconclusive: 29.9 µM [inhibitor, single point].
`O=C(NC1CCS(=O)(=O)C1)C1CCCCN1S(=O)(=O)c1ccc(Cl)cc1` (stereo not drawn) was tested, and the Potency was inconclusive: 26.7 µM [inhibitor, partial curve].
For `COc1ccccc1CNC(=O)c1cc(-c2cccnc2)nc2ccccc12`, the max response, negative = inhibition was inactive: -2.14%.
With `Cc1ccc(C)c(NC(=O)CCc2ccc(S(=O)(=O)NC3CCCCC3)cc2)c1` the Potency was active: 6.7 µM.
For `O=C(NCCCc1ccccc1)c1cnc2n(c1=O)CCS2`, the Potency was inconclusive: 29.9 µM [inhibitor, partial curve].
In the case of `CCOC(=O)c1c(C)[nH]c(-c2csc(N)n2)c1C`, the Potency is reported as inconclusive: 26.7 µM [inhibitor, single point].
`CCCCC(c1nnnn1CCOC)N1CCN(c2cccc(OC)c2)CC1` (stereo not drawn) was tested, and the max response, negative = inhibition was inconclusive: -32.1% [inhibitor].
With `C#CCN(C[C@@H]1[C@@H](OC(=O)NCc2ccccc2F)[C@@H](OC(=O)NCc2ccccc2F)CN(C(=O)OC(C)C)N1C(=O)OC(C)C)S(=O)(=O)c1ccc(C)cc1` the Potency was inconclusive: 29.9 µM [inhibitor, single point].
For `CCOc1cc(CNCCO)ccc1OCC(=O)NC(C)(C)C`, the Potency was active: 23.8 µM.
For `CC1CN(CC(O)COc2ccc(C#N)cc2)CCN1CC(O)COc1ccc(C#N)cc1` (stereo not drawn), the max response, negative = inhibition was inactive: 3.76%.
`COc1cccc(CN(C)C(=O)CC23CC4CC(CC(C4)C2)C3)c1OC` was tested, and the Potency was active: 29.9 µM.
`O=C1C(=O)N(c2cccc(Cl)c2)C(c2ccccc2[N+](=O)[O-])/C1=C(\O)c1ccccc1` (stereo not drawn) was tested, and the Potency was inconclusive: 33.6 µM [inhibitor, single point].
In the case of `CN(C)C(=O)N=NC(=O)N(C)C`, the Potency is reported as active: 1.89 µM.
In the case of `Fc1ccc(NC(=S)Nc2ccc(F)c(Cl)c2)cc1Cl`, the Potency is reported as inconclusive: 9.47 µM [inhibitor, partial curve].
For `CCOC(=O)C1(S(=O)(=O)c2ccc(Cl)cc2)CCN(Cc2ccccc2)CC1`, the Potency was inconclusive: 16.8 µM [inhibitor, partial curve].
`O=C(NCCNC(=O)c1cc(Cl)ccc1Cl)c1ccccn1` was tested, and the max response, negative = inhibition was inactive: 2.22%.
`COC(=O)C(CC(=O)O)NCc1ccco1` (stereo not drawn) was tested, and the Potency was active: 11.9 µM.
For `CCOC(=O)C1CCN(C(=O)CC(C)c2ccccc2)CC1` (stereo not drawn), the Potency was active: 23.8 µM.
For `Cc1ccc([C@@H]2C[C@H]3CN(Cc4cccc(Cl)c4)C(=O)[C@]34CCCN24)o1`, the Potency was inconclusive: 21.2 µM [inhibitor, single point].
With `COc1cccc(CNS(=O)(=O)c2ccccc2Br)c1OC` the Potency was active: 18.9 µM.
In the case of `CCOC(=O)c1ccc(NC(=O)CN(c2ccc(C)cc2)S(=O)(=O)c2c(C)nn(C)c2C)cc1`, the Potency is reported as inconclusive: 37.7 µM [inhibitor, single point].
With `Cc1nn(CCC(=O)NNC(=S)Nc2ccc(Cl)cc2)c(C)c1[N+](=O)[O-]` the Potency was inconclusive: 11.9 µM [inhibitor, partial curve, poor fit].
In the case of `Cc1ccc(S(=O)(=O)N2CCCCC2C(=O)N2CCN(C)CC2)cc1` (stereo not drawn), the Potency is reported as inconclusive: 29.9 µM [inhibitor, single point].
`COc1ccccc1N(CC(=O)N1CCCCCC1)S(C)(=O)=O` was tested, and the Potency was inconclusive: 21.2 µM [inhibitor, partial curve].
`C[C@@]12C(=O)N(CCc3c[nH]c4ccccc34)CC(=O)N1[C@H]1c3ccccc3OC[C@@H]1[C@@H]2c1ccccc1` was tested, and the max response, negative = inhibition was inactive: 2.38%.
With `CN=c1scc(-c2cccs2)n1/N=C/c1ccc(O)c(O)c1O` the Potency was active: 6.7 µM.
